Laboratory results as given in paper doi:10.1101/2022.07.03.498625.
These are yes or no findings as the source states them, for the method shown. In cells and extracts the contact can be indirect. Some entries that bind do so weakly or less than the wild type.

Sequences of proteins named here, by UniProt entry; tags and fusion partners are left off. Residues count along the entry.
UniProt P63165, residues 1-97: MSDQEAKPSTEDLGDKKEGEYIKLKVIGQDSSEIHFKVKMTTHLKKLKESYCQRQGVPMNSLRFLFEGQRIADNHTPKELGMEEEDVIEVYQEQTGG

Target: HA-tagged wild type Zbtb14 (zebrafish)
Assay: co-IP

binding: binds
Substance: GFP-SUMO1 (from UniProt P63165 1-97)
